# From PMC9012282
# No constants are given. Whether binding was seen depends on the method and setting. Binding seen in cells or lysates may run through a third protein.
# B1: Wolf-Hirschhorn syndrome candidate 1 (WHSC1), exogenous, O96028 1-1365 (protein)
# chain: MEFSIKQSPLSVQSVVKCIKMKQAPEILGSANGKTPSCEVNRECSVFLSKAQLSSSLQEGVMQKFNGHDALPFIPADKLKDLTSRVFNGEPGAHDAKLRFESQEMKGIGTPPNTTPIKNGSPEIKLKITKTYMNGKPLFESSICGDSAADVSQSEENGQKPENKARRNRKRSIKYDSLLEQGLVEAALVSKISSPSDKKIPAKKESCPNTGRDKDHLLKYNVGDLVWSKVSGYPWWPCMVSADPLLHSYTKLKGQKKSARQYHVQFFGDAPERAWIFEKSLVAFEGEGQFEKLCQESAKQAPTKAEKIKLLKPISGKLRAQWEMGIVQAEEAASMSVEERKAKFTFLYVGDQLHLNPQVAKEAGIAAESLGEMAESSGVSEEAAENPKSVREECIPMKRRRRAKLCSSAETLESHPDIGKSTPQKTAEADPRRGVGSPPGRKKTTVSMPRSRKGDAASQFLVFCQKHRDEVVAEHPDASGEEIEELLRSQWSLLSEKQRARYNTKFALVAPVQAEEDSGNVNGKKRNHTKRIQDPTEDAEAEDTPRKRLRTDKHSLRKRDTITDKTARTSSYKAMEAASSLKSQAATKNLSDACKPLKKRNRASTAASSALGFSKSSSPSASLTENEVSDSPGDEPSESPYESADETQTEVSVSSKKSERGVTAKKEYVCQLCEKPGSLLLCEGPCCGAFHLACLGLSRRPEGRFTCSECASGIHSCFVCKESKTDVKRCVVTQCGKFYHEACVKKYPLTVFESRGFRCPLHSCVSCHASNPSNPRPSKGKMMRCVRCPVAYHSGDACLAAGCSVIASNSIICTAHFTARKGKRHHAHVNVSWCFVCSKGGSLLCCESCPAAFHPDCLNIEMPDGSWFCNDCRAGKKLHFQDIIWVKLGNYRWWPAEVCHPKNVPPNIQKMKHEIGEFPVFFFGSKDYYWTHQARVFPYMEGDRGSRYQGVRGIGRVFKNALQEAEARFREIKLQREARETQESERKPPPYKHIKVNKPYGKVQIYTADISEIPKCNCKPTDENPCGFDSECLNRMLMFECHPQVCPAGEFCQNQCFTKRQYPETKIIKTDGKGWGLVAKRDIRKGEFVNEYVGELIDEEECMARIKHAHENDITHFYMLTIDKDRIIDAGPKGNYSRFMNHSCQPNCETLKWTVNGDTRVGLFAVCDIPAGTELTFNYNLDCLGNEKTVCRCGASNCSGFLGDRPKTSTTLSSEEKGKKTKKKTRRRRAKGEGKRQSEDECFRCGDGGQLVLCDRKFCTKAYHLSCLGLGKRPFGKWECPWHHCDVCGKPSTSFCHLCPNSFCKEHQDGTAFSCTPDGRSYCCEHDLGAASVRSTKTEKPPPEPGKPKGKRRRRRGWRRVTEGK
# Target: p65, in 293T cells, Q04206
# Test: co-IP; exogenous WHSC1 in 293T cells; immunoblot of 293T cell immunoprecipitates
# Conditions: remark: other sources report otherwise
binder,measurement,value
B1,binding,no binding
